Reference: PMC10831117
These are yes or no findings as the source states them, for the method shown. Binding seen in cells or lysates may run through a third protein. Some binding calls cover weakened binding; strength is not graded here. Tags and fused reporters may be left off the sequences shown.

The chains behind the UniProt entries cited, without tags or fusion partners.
UniProt P03165: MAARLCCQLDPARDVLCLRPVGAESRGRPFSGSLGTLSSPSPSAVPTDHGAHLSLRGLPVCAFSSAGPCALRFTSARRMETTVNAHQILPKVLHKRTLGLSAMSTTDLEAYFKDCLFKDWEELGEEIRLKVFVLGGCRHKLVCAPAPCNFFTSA

T1: HA-tagged RAD51C (UniProt O43502)
T1 sequence: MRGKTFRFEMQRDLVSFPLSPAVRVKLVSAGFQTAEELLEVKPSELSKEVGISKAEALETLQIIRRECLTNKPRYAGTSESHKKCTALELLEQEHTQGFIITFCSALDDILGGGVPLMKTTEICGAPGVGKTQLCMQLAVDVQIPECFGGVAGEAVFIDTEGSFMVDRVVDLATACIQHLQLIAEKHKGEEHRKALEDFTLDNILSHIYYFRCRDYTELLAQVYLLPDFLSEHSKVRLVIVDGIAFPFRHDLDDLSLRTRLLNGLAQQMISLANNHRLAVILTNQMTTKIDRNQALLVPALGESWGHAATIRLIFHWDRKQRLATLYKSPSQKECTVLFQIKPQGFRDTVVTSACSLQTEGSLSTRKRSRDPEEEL

B1: HA-tagged RAD51C (protein, UniProt O43502 1-376)
chain: T1 sequence

Legend:
HA-tagged RAD51C = target: T1, HA-tagged RAD51C; assay: co-IP; HEK293T cells co-transfected with Flag-tagged HBV protein plasmids and HA-RAD51C, 48 h; whole-cell lysate (250 mM Tris-HCl pH 7.4, 150 mM NaCl, 1 mM EDTA, 1% Triton X-100, 10% glycerol); antibody overnight at 4 °C, protein G magnetic beads; western blot; forward and reverse pull-down
[1] = target: Flag-tagged HBV X protein (HBX) (hepatitis B virus) (UniProt P03165); assay: as above

Molecule	binding (HA-tagged RAD51C)	binding [1]
Flag-tagged HBV X protein (HBX) (from UniProt P03165 1-154)	binds	
B1		binds
